This passage reports log2 fold change results from the supplement of paper PMC12819154, “High-throughput peptide-centric local stability assay extends protein–ligand identification to membrane proteins, tissues and bacteria” (Nature Structural & Molecular Biology, 2025).

By UniProt entry, the sequences of proteins in these tests, tags left out. Where a name states a change or a piece, a line headed by the entry shows the natural chain unless it says otherwise.
UniProt P63104: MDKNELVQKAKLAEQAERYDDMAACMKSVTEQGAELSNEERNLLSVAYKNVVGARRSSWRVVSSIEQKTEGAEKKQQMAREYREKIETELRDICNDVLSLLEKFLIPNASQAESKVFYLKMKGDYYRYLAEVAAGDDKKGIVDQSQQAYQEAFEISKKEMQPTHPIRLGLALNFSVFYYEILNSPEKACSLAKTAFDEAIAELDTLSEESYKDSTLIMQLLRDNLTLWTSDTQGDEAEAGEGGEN
UniProt P67936, whole entry: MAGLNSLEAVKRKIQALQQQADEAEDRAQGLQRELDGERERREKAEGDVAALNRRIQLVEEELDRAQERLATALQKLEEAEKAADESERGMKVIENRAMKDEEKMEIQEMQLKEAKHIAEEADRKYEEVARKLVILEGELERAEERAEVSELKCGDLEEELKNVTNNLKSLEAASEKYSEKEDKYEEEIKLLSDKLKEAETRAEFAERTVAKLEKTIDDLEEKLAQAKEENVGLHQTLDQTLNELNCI
UniProt P55060: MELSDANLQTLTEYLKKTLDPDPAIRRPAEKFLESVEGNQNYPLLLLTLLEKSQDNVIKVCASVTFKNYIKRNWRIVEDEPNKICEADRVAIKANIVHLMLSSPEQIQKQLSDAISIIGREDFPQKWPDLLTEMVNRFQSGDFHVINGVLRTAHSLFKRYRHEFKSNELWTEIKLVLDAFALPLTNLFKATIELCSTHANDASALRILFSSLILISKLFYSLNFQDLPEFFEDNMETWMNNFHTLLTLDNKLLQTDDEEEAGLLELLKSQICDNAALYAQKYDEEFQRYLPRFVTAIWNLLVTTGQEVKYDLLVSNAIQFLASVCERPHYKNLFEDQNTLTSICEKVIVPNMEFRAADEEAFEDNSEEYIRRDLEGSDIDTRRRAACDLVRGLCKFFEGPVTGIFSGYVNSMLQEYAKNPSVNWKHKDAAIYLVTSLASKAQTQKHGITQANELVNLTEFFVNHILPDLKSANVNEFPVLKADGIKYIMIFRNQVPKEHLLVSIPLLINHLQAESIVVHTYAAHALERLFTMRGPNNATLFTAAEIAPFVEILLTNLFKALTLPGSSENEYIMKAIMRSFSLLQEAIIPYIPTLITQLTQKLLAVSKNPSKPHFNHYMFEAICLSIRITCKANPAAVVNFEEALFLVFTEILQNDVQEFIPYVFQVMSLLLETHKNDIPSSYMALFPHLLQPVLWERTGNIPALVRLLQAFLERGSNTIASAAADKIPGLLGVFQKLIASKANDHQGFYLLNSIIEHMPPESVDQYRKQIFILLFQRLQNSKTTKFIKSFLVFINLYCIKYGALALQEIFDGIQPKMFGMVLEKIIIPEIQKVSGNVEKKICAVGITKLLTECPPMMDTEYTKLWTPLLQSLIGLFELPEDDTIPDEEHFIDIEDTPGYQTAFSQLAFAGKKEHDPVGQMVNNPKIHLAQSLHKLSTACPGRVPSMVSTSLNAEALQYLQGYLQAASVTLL
UniProt P62314, whole entry: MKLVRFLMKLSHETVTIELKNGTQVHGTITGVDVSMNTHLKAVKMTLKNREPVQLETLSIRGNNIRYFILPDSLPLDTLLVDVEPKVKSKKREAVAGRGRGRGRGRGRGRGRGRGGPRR
UniProt P78371: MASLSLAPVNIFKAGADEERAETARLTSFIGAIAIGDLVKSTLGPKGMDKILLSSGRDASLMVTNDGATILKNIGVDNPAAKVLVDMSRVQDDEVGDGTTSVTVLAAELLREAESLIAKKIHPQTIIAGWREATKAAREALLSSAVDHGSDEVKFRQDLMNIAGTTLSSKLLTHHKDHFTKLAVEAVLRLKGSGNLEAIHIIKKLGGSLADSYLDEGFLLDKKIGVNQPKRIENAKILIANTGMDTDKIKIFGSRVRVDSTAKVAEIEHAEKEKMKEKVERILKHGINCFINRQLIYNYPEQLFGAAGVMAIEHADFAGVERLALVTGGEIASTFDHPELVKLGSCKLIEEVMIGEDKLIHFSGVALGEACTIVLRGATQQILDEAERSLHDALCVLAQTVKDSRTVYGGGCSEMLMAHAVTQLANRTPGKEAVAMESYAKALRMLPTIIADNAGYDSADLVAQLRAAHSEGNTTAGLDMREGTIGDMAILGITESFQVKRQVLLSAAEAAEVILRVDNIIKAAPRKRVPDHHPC
UniProt P60174, whole entry: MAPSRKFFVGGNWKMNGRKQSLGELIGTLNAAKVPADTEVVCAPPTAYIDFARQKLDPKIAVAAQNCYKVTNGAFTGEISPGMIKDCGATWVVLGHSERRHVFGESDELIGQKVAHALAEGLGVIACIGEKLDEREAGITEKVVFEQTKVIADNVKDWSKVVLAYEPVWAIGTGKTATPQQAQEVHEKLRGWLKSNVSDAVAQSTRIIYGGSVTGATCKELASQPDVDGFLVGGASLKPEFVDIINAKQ
UniProt P78559: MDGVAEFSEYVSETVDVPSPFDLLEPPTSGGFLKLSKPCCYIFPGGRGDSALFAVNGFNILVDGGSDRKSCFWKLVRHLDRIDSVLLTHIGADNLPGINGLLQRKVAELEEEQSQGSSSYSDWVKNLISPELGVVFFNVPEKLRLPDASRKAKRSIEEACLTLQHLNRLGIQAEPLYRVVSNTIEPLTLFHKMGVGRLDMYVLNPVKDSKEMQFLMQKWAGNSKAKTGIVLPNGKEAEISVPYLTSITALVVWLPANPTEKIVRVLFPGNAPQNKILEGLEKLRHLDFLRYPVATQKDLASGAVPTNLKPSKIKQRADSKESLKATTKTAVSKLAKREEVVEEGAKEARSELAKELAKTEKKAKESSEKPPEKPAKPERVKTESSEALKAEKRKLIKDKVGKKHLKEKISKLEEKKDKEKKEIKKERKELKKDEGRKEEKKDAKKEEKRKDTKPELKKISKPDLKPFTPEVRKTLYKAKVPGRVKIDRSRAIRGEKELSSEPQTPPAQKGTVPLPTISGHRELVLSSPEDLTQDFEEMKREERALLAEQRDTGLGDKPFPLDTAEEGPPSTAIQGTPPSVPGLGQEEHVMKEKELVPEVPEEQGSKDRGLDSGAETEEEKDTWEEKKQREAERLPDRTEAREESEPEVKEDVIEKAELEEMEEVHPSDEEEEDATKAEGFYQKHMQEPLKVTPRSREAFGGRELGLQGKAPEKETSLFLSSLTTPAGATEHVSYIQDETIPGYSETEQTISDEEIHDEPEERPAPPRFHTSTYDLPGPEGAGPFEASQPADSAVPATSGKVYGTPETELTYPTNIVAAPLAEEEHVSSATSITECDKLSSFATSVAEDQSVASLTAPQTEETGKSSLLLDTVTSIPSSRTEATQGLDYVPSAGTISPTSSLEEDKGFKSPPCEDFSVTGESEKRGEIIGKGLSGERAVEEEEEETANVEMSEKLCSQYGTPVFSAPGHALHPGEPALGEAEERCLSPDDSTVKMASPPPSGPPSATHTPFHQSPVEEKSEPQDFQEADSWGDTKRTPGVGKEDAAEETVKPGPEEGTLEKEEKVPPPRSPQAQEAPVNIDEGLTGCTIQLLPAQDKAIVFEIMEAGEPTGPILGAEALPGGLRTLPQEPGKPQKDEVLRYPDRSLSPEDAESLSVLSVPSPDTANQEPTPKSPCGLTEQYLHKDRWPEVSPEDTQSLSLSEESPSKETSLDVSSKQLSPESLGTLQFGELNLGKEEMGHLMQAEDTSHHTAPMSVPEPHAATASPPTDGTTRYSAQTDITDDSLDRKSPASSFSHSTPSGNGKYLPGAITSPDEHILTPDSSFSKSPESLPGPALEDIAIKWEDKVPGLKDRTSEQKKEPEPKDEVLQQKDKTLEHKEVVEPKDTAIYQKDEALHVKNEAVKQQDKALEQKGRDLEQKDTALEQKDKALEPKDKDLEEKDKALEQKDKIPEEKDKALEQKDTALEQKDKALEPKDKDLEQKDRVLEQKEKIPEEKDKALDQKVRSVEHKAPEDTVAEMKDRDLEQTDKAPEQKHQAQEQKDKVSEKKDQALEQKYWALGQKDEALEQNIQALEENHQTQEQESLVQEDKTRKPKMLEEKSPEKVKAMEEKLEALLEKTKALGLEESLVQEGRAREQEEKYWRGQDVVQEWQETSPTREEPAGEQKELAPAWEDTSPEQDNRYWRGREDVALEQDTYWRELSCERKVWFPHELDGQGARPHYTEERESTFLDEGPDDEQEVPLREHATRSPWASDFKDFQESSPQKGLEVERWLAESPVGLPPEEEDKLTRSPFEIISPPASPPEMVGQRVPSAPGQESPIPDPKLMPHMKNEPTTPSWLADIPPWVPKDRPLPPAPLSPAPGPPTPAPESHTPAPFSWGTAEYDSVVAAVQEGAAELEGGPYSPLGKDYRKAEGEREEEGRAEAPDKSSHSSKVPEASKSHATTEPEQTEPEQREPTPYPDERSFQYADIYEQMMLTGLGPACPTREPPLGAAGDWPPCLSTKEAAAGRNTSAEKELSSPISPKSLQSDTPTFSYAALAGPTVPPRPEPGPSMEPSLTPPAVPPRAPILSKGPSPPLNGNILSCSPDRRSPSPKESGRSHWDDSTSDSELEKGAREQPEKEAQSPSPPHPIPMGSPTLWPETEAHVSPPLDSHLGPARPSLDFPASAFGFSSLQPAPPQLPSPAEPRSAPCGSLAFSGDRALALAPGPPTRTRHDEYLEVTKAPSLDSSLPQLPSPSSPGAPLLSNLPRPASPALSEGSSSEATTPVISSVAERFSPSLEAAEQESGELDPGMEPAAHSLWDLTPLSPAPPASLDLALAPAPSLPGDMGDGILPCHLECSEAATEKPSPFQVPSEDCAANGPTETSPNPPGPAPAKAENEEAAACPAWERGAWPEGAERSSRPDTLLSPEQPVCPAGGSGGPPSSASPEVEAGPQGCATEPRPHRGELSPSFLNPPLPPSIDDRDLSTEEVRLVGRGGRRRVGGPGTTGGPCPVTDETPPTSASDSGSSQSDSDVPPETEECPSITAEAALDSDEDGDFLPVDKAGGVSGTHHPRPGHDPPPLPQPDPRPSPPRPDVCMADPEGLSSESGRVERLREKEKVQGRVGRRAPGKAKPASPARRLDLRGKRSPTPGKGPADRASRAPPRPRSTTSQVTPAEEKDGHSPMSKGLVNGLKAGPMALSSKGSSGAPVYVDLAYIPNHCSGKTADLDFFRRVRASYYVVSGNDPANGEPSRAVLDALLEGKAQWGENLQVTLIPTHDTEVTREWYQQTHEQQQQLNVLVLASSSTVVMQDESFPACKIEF
UniProt P56962: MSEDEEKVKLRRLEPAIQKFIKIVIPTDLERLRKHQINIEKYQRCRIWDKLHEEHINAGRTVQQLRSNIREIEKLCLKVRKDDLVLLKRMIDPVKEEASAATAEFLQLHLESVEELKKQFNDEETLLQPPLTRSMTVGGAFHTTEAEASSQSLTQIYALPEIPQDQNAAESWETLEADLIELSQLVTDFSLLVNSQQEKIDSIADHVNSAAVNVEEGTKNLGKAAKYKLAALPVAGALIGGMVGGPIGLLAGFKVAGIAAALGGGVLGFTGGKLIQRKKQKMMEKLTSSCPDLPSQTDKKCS
UniProt P59190: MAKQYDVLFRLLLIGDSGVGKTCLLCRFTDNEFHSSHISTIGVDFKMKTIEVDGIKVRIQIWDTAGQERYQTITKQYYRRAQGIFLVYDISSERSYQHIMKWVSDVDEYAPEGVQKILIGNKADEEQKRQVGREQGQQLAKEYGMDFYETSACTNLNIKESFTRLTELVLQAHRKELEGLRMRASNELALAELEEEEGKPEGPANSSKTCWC
UniProt P56385: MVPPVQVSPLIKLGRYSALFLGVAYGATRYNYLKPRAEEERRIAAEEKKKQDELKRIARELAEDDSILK
UniProt P78549: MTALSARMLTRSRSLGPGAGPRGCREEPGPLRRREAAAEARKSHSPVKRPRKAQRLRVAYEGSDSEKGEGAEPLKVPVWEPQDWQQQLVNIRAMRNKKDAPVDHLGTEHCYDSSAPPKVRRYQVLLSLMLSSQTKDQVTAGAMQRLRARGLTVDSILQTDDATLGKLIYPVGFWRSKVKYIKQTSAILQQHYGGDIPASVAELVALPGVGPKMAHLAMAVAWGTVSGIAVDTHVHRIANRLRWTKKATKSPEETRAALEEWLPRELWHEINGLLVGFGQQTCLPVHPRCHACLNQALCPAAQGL
UniProt P56182: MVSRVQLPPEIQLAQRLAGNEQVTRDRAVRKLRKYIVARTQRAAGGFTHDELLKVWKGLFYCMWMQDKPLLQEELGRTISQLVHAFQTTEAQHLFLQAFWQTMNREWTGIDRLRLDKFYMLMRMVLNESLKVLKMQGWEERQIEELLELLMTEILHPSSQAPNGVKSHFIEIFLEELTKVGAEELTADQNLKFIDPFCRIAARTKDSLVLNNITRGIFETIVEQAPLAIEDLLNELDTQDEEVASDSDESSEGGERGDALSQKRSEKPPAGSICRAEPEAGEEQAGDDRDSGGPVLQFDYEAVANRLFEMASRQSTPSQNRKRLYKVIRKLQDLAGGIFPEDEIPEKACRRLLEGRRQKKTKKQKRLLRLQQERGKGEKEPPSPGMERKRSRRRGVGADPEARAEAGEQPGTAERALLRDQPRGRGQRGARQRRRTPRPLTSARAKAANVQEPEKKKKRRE

Some of the results follow. Most entries show no effect beyond the scatter of the controls.

Compound in the assay: CN[C@@H]1C[C@H]2O[C@@](C)([C@@H]1OC)n1c3ccccc3c3c4c(c5c6ccccc6n2c5c31)C(=O)NC4 [staurosporine]
The experiment in a line: log2 fold change of tryptic peptide abundance, ligand vs vehicle (limited proteolysis) (log2 ratio); higher = more trypsin-susceptible (destabilized). As to conditions: ligand concentration: 20 uM; sample: K562 cleared lysate; digestion: 4 min, 22 C (HT-PELSA RT4min, Orbitrap Astral).
With “YWHAZ (peptide sequence: AKLAEQAER, peptide start residue: 10) (UniProt P63104)”, the log2 fold change came out at 0.139.

Turning to “SESN2 (peptide sequence: MYNLFWR, peptide start residue: 439) (UniProt P58004)”, the log2 fold change is -0.161.

Regarding “SUMO3 (peptide sequence: EGVKTENDHINLK, peptide start residue: 8) (UniProt P55854)”, the log2 fold change was 0.119.

Turning to “UniProt P84098 (peptide sequence: LIKDGLIIR, peptide start residue: 44)”, the log2 fold change was -0.138.

For the target “TPM4 (peptide sequence: AEGDVAALNRR, peptide start residue: 45) (UniProt P67936)”, the log2 fold change came to 0.264.

Regarding “UniProt P60866 (peptide sequence: TPVEPEVAIHRIR, peptide start residue: 9)”, the log2 fold change was 0.914.

“ADAR (peptide sequence: GQLPEAPVIGK, peptide start residue: 49) (UniProt P55265)”: the log2 fold change is 0.202.

With “MRPS21 (peptide sequence: ILTMDGLIEDIK, peptide start residue: 29) (UniProt P82921)”, the log2 fold change is -0.474.

“UniProt P60763 (peptide sequence: AVLCPPPVK, peptide start residue: 175)”: the log2 fold change is 0.0492.

For the target “CSE1L (peptide sequence: RAACDLVR, peptide start residue: 384) (UniProt P55060)”, the log2 fold change stood at 0.718.

In the case of “EEF1A1 (peptide sequence: QTVAVGVIK, peptide start residue: 431) (UniProt P68104)”, the log2 fold change was -0.166.

Turning to “UniProt P62899 (peptide sequence: RIHGVGFK, peptide start residue: 32)”, the log2 fold change turned out to be 0.234.

On to “UniProt P61966 (peptide sequence: FMLLFSR, peptide start residue: 4)”, for which the log2 fold change was -0.146.

Take “RNF4 (peptide sequence: DVYVTTHTPR, peptide start residue: 105) (UniProt P78317)”: the log2 fold change turned out to be 0.353.

As to “NCKAP1L (peptide sequence: HCATTISK, peptide start residue: 631) (UniProt P55160)”, the log2 fold change is -0.0794.

Consider “CTBP2 (peptide sequence: DCTVEMPILK, peptide start residue: 37) (UniProt P56545)”, for which the log2 fold change is -0.358.

On to “UniProt P83916 (peptide sequence: CPQVVISFYEER, peptide start residue: 156)”, for which the log2 fold change is -0.156.

As for “UniProt P61978 (peptide sequence: ELRENTQTTIK, peptide start residue: 169)”, the log2 fold change was found to be 0.699.

As for “UniProt P55201 (peptide sequence: HLPVEEQLK, peptide start residue: 779)”, the log2 fold change is -0.135.

“UniProt P62829 (peptide sequence: RKDGVFLYFEDNAGVIVNNK, peptide start residue: 90)”: the log2 fold change was -0.18.

“UniProt P62314 (peptide sequence: NGTQVHGTITGVDVSMNTHLK, peptide start residue: 21)”: the log2 fold change is -0.237.

On to “CCT2 (peptide sequence: TPGKEAVAMESYAK, peptide start residue: 428) (UniProt P78371)”, for which the log2 fold change is -0.492.

“TPI1 (peptide sequence: DCGATWVVLGHSERR, peptide start residue: 86) (UniProt P60174)”: the log2 fold change is -0.451.

Consider “UniProt P60228 (peptide sequence: EIYNEKELLQGK, peptide start residue: 30)”, for which the log2 fold change was found to be 0.245.

For “UniProt P61923 (peptide sequence: YYDDTYPSVKEQK, peptide start residue: 30)”, the log2 fold change was 0.797.

In the case of “UniProt P78559 (peptide sequence: GREDVALEQDTYWR, peptide start residue: 1685)”, the log2 fold change was -0.248.

Consider “STX17 (peptide sequence: RLEPAIQK, peptide start residue: 12) (UniProt P56962)”, for which the log2 fold change amounted to 0.383.

With “UniProt P59190 (peptide sequence: LLLIGDSGVGK, peptide start residue: 11)”, the log2 fold change came to 0.0403.

Turning to “UniProt P56385 (peptide sequence: VPPVQVSPLIK, peptide start residue: 2)”, the log2 fold change is 0.358.

With “NTHL1 (peptide sequence: LIYPVGFWR, peptide start residue: 175) (UniProt P78549)”, the log2 fold change was found to be 0.0912.

Regarding “UniProt P78563 (peptide sequence: YDFLSESGESHAK, peptide start residue: 249)”, the log2 fold change is -0.662.

Consider “UniProt P62316 (peptide sequence: EMWTEVPK, peptide start residue: 72)”, for which the log2 fold change was 0.256.

For “RRP1 (peptide sequence: GVGADPEAR, peptide start residue: 395) (UniProt P56182)”, the log2 fold change was -0.178.

With “UniProt P61313 (peptide sequence: GATYGKPVHHGVNQLKFAR, peptide start residue: 78)”, the log2 fold change worked out at 0.708.

As to “MRPS34 (peptide sequence: LPLFGLGR, peptide start residue: 71) (UniProt P82930)”, the log2 fold change was found to be 0.236.
